Data set [1] addresses T1, mKu (mycobacterial Ku) (UniProt P9WKD9).
T1 sequence (looked up, limits assumed): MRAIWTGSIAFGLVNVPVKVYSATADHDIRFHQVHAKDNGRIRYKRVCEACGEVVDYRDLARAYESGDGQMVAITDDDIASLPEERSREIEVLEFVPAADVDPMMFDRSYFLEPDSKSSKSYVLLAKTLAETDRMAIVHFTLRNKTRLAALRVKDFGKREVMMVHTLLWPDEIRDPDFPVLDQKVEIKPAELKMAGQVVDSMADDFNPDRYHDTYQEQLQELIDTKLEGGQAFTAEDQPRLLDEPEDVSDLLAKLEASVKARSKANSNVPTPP
Briefly: EMSA. The settings on record: 5 nM DNA, 0-2.5 nM mKu, Hill n 1.5±0.3.

For data set [2], the target named is T1, mKu (mycobacterial Ku). Briefly: SPR. As to conditions: recombinant protein.
Data set [3] deals with T1, mKu (mycobacterial Ku). Briefly: size exclusion chromatography. The settings on record: recombinant protein. In general terms: In gel filtration, larger molecules generally elute earlier.
The target of data set [4] is T1, mKu (mycobacterial Ku). Briefly: analytical ultracentrifugation. The settings on record: recombinant protein.
In data set [5] the target is T1, mKu (mycobacterial Ku). Briefly: exonuclease III protection. As to conditions: recombinant protein.
Data set [6] deals with T1, mKu (mycobacterial Ku). Briefly: differential scanning fluorimetry. As to conditions: recombinant protein. (In general: Differential scanning fluorimetry follows unfolding on heating by fluorescence.)
Data set [7] concerns the target T1, mKu (mycobacterial Ku). Briefly: negative-stain TEM. As to conditions: recombinant protein.

pKd: −log10 of the molar value. The exact form of at least one protein or probe is not confirmed. Tags and fusion partners may be left off the protein sequences shown.

As to “CCCCCCTGTCGCCGCCGACGTCTGTGATATGGCGTTGTTG (double strand) [40 bp dsDNA (FAM)]”, the pKd – broadly, −log10 of the Kd, conventionally taken in molar units – in the data set with mKu (mycobacterial Ku) [1] is 9.48.

For the sequence “CCCCCCTGTCGCCGCCGACGTCTGTGATATGGCGTTGTTG (double strand) [40 bp dsDNA (biotin)]”, the half-maximal binding with mKu (mycobacterial Ku) [2] came out at 74.3 nM.

“CCCCCCTGTCGCCGCCGACGTCTGTGATATGGCGTTGTTG (double strand) [40 bp dsDNA (unlabelled)]”: the binding result in the data set with mKu (mycobacterial Ku) [3], with mKu (mycobacterial Ku) [4], with mKu (mycobacterial Ku) [5], with mKu (mycobacterial Ku) [6] and with mKu (mycobacterial Ku) [7] was “binds” in each case.
